Laboratory results taken from PubChem BioAssay AID504467 (National Center for Advancing Translational Sciences (NCATS), 2011).
The whole screen tested about 330,000 compounds, of which about 7,700 (2.3%) were called active. Inconclusive results, whose numbers are uncertain, are shown with a selection of clear calls. Calls come from the whole dose curve; as a rule, active = well fitted inhibition curve with a large enough effect; inconclusive = small, poorly fitted or top-dose-only effect, or effect the other way; inactive = flat fitted curve, though single readings scatter. Potencies beside an inconclusive call are fits to weak or partial responses and may not hold up.
% is set by controls: 0 for no effect and ±100 for the full control effect; potency is the fitted concentration of half-maximal effect.

Assay: qHTS screen for small molecules that inhibit ELG1-dependent DNA repair in human embryonic kidney (HEK293T) cells expressing luciferase-tagged ELG1; note: nearly all actives have a fitted effect of over 55% in size
Details: HEK293T ELG1-luciferase reporter, luminescence, 16 h, DNA damage induced by 5-fluorouridine; activity change, negative = inhibition: at 46.1 µM (top of the series)
How it was run: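 Overnight (16 hr) co-exposure of 2,000 cells/well to 5-fluorouridine and compound at 37 °C preceded detection. Luciferase was quantified via ONE-Glo luminescence; loss of signal denotes inhibition.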
In the case of `CCN(CC)S(=O)(=O)c1ccc(NC(=O)c2cc(-c3ccccc3)nc3ccccc23)cc1`, the Potency is reported as inconclusive: 16.4 µM [inhibitor, partial curve, poor fit]. For `CCOC(=O)c1ccc(NC(=S)Nc2ccc3[nH]c(=O)[nH]c3c2)cc1`, the Potency was inconclusive: 29.1 µM [inhibitor, partial curve, poor fit]. For `Cc1cccc(CSc2nc3c(c(=O)[nH]2)CCC3)c1`, the Potency was inconclusive: 20.6 µM [activator, partial curve]. In the case of `CC(C)(C)c1cc(NC(=O)CSc2nnc(N)s2)n(-c2ccccc2)n1`, the “activity change, negative = inhibition” value is reported as inactive: -16.2%. In the case of `CCC(CC)NC(=O)COn1nnc2ccc(S(=O)(=O)N3CCOCC3)cc21`, the “activity change, negative = inhibition” value is reported as inactive: 12.6%. In the case of `Cc1cc(C)c(O)c(-c2cc(C(=O)NCc3ccccc3)[nH]n2)c1`, the “activity change, negative = inhibition” value is reported as inactive: -9.9%. In the case of `CCOc1ccc(N(CC(=O)Nc2ccc3c(c2)OCCO3)S(=O)(=O)c2c(C)noc2C)cc1`, the Potency is reported as inconclusive: 18.4 µM [inhibitor, single point]. For `O=C(NCc1ccco1)C(c1ccccc1)N(Cc1ccccc1)C(=O)Cn1nnc2ccccc21` (configuration not stated), the Potency was active: 18.4 µM. In the case of `O=C(O)C1CCCCC1C(=O)Nc1ccc2c(c1)OCO2` (configuration not stated), the Potency is reported as inconclusive: 18.3 µM [activator, partial curve, poor fit]. With `Cc1cc(OCc2cc(C(=O)N(C)CC3CCOCC3)no2)cc(C)c1Cl` the Potency was inconclusive: 16.4 µM [activator, single point]. In the case of `Cc1ccc(C(=O)N2CCN(CCNC(=O)C(=O)NCc3ccc(Cl)cc3)CC2)cc1`, the Potency is reported as inconclusive: 13 µM [inhibitor, partial curve]. With `Cc1ccccc1/C=C/c1nc2ccccc2c(=O)n1CCc1ccccc1` the Potency was active: 16.4 µM. For `CC(C)c1nc2oc3c(NCC4CCCO4)ncnc3c2c2c1COC(C)(C)C2` (configuration not stated), the “activity change, negative = inhibition” value was inactive: 13.3%. For `CCOC(=O)N/N=C\c1ccccc1OC/C=C/c1ccccc1`, the Potency was inconclusive: 20.6 µM [activator, partial curve]. For `c1ccc(-c2nc(-c3cccnc3)cs2)cc1`, the Potency was inconclusive: 20.6 µM [activator, partial curve]. For `COC(=O)c1ccc(COc2ccccc2/C=C(\C#N)C(=O)Nc2c(C)cccc2C)cc1`, the Potency was active: 25.9 µM. In the case of `COc1cccc(C(=O)Nc2ccc(NC(=O)C3CC3)cn2)c1`, the Potency is reported as inconclusive: 11.6 µM [activator, partial curve]. With `COc1ccc(NC(=O)CSc2nc3ccccc3c(=O)[nH]2)cc1S(N)(=O)=O` the “activity change, negative = inhibition” value was inactive: 22.7%. With `CC(C)(C)c1cc(C(=O)N/N=C/c2ccc([N+](=O)[O-])s2)n[nH]1` the Potency was active: 5.17 µM. In the case of `Cc1ccc(CCN2CC(C(=O)NC3CCCCC3)CC2=O)cc1` (configuration not stated), the Potency is reported as inconclusive: 20.6 µM [activator, partial curve, poor fit]. In the case of `CCCC(=O)Nc1ccc(NC(=O)c2cc3ccccc3o2)c(OC)c1`, the “activity change, negative = inhibition” value is reported as inactive: 0%. In the case of `CC(=O)c1cc(OC(=O)N2CCOCC2)ccc1OC(=O)N1CCOCC1`, the “activity change, negative = inhibition” value is reported as inactive: 15.7%. With `COc1ccc(C2=NNC(=O)CC2)cc1` the Potency was inconclusive: 25.9 µM [activator, single point]. In the case of `CSc1nc2ccccc2c(=O)n1N`, the “activity change, negative = inhibition” value is reported as inactive: -5.35%. With `CN(C)C(CNC(=O)CCCOc1ccccc1)c1ccco1` (configuration not stated) the Potency was inconclusive: 23.1 µM [activator, single point]. With `COc1ccc(C)cc1N(CC(=O)NCCSCc1cccc(Cl)c1)S(C)(=O)=O` the Potency was inconclusive: 22.4 µM [inhibitor, single point]. For `Cc1ccc(NC(=O)c2sc(N)nc2-c2ccc([N+](=O)[O-])cc2)c(C)c1`, the “activity change, negative = inhibition” value was inactive: -0.411%. With `O=C(CSC(=S)N1CCSCC1)c1ccccc1` the Potency was inconclusive: 2.91 µM [activator, full curve]. With `Cn1c(N)c(C(=O)COC(=O)c2ccc(S(=O)(=O)N3CCCCC3)cc2)c(=O)n(C)c1=O` the “activity change, negative = inhibition” value was inactive: -4.37%. With `Cc1ccc(C)c(N2CCN(C(=O)CCCn3c(=S)[nH]c4cc5c(cc4c3=O)OCO5)CC2)c1` the Potency was active: 9.2 µM. In the case of `Cc1ccc(S(=O)(=O)N2CCCCC2)cc1NC(=O)CSc1nncn1-c1ccccc1`, the Potency is reported as inconclusive: 23.1 µM [inhibitor, partial curve]. With `COCCn1c(=O)[nH]c2cc(C(=O)N3CCN(c4ccc(Cl)cc4)CC3)ccc2c1=O` the Potency was active: 18.3 µM. In the case of `COc1ccc(NS(=O)(=O)c2ccc(C)cc2)c([N+](=O)[O-])c1`, the Potency is reported as inconclusive: 29.1 µM [inhibitor, single point]. With `Cc1nc2sc(C(N)=O)c(N)c2c(C)c1CC(=O)c1ccccc1` the Potency was inconclusive: 29.1 µM [inhibitor, single point]. For `CN(CCCNC(=O)c1cc2c(=O)[nH]c3ccccc3c2n1C)Cc1ccccc1`, the “activity change, negative = inhibition” value was inactive: 29.5%. With `CC(Oc1ccc(F)cc1)C(=O)Nc1ccccc1C(=O)N1CCCCC1` (configuration not stated) the “activity change, negative = inhibition” value was inactive: -31.4%. For `O=C(CS(=O)(=O)Cc1ccccc1)N1CCN(Cc2ccc3c(c2)OCO3)CC1`, the “activity change, negative = inhibition” value was inactive: -18.3%. For `CCCC(=O)Nc1sc2c(c1C#N)CCCC2`, the Potency was inconclusive: 4.61 µM [activator, full curve, poor fit]. For `CC/C(C)=N/NC(=S)NCc1ccco1`, the “activity change, negative = inhibition” value was inactive: -18.5%. With `COc1ccc(C(=O)C2CCCN(Cc3ccc4nonc4c3)C2)c(C)c1` (configuration not stated) the Potency was inconclusive: 10.3 µM [inhibitor, partial curve, poor fit]. For `CCOc1ccc(NC(=O)CN(C)C(=O)c2sc3ccccc3c2Cl)cc1OCC`, the Potency was inconclusive: 20.6 µM [inhibitor, single point]. With `O=C(O)c1cccc(-n2cccc2/C=C2\NC(=O)N(Cc3ccc(F)cc3)C2=O)c1` the “activity change, negative = inhibition” value was inactive: -17.1%. For `Cc1cccc(NC(=O)c2cc(-c3cc(C)c(C)cc3O)n[nH]2)c1`, the Potency was inconclusive: 7.3 µM [activator, partial curve]. With `CCC/C(O)=C1\C(=O)CC(C)(C)CC1=Nc1ccc(OC)cc1OC` the Potency was inconclusive: 6.51 µM [inhibitor, partial curve]. In the case of `COc1ccc(CNC(=O)CC23CC4CC(CC(C4)C2)C3)cc1OC`, the “activity change, negative = inhibition” value is reported as inactive: -4.86%. With `Cc1nc(SCC(=O)Nc2ccccc2Cl)c2c(C)c(C)sc2n1` the Potency was inconclusive: 25.9 µM [activator, single point]. With `CC(=O)OCC1(C)CN(c2ccccc2)NC1=O` (configuration not stated) the Potency was inconclusive: 29.1 µM [inhibitor, single point].
